In PubChem BioAssay AID328 (DTP/NCI, 2004):
The list is a part of this screen's results and no random one: it gathers tests that were run many times, whatever their T/C, doses with no T/C, and many T/C values between a quarter and a half above the control. Further doses and runs are listed elsewhere. T/C is the treated group as % of the vehicle group. Some doses have a count of surviving animals in place of a T/C: the source holds a T/C of zero for them, seemingly a mark for toxic or unscored doses. Some doses without a T/C left all or most animals alive at the check, yet need not have been tolerated: survival well below the control is almost never listed, so the zero probably covers shortened survival too. Counts of survivors are from the toxicity check (mostly the fifth day) where no day follows; animals may have died later. Schedule codes are those of the source, taken here to give the interval after Q, in days (D) or hours (H), and the number of doses after X. Where survival is the endpoint, the PubChem record calls one and a half times the control and up active, and a quarter to a half above the control has no call in these data; cut-offs in other NCI protocols can differ. Some T/C values carry the count of animals alive at the toxicity check (mostly the fifth day); where none is given, no animal had died by that day.

System: BDF1 mice, P388 leukemia ip, median survival T/C
Test: NCI In Vivo Anticancer Drug Screen. Data for tumor model P388 Leukemia (intraperitoneal) in B6D2F1 (BDF1) mice
Settings: T/C endpoint: median survival time, higher T/C = longer survival
How it was run: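 Each value expresses how treatment altered survival: treated-mouse outcome over vehicle-mouse outcome, both groups bearing the transplanted tumour.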

[1] = dose: 50.0 mg/kg/injection, schedule: Q01DX009 (ip), vehicle: Klucel (hydroxypropylcellulose) (HPC)
[2] = dose: 3.0 mg/kg/injection, schedule: Q01DX009 (ip), vehicle: saline
[3] = dose: 100.0 mg/kg/injection, schedule: Q04DX003 (ip), vehicle: saline
[4] = dose: 200.0 mg/kg/injection, schedule: Q04DX003 (ip), vehicle: saline
[5] = dose: 400.0 mg/kg/injection, schedule: Q04DX003 (ip), vehicle: saline
[6] = dose: 200.0 mg/kg/injection, schedule: Q01DX009 (ip), vehicle: saline
[7] = dose: 50.0 mg/kg/injection, schedule: Q01DX009 (ip), vehicle: saline
[8] = dose: 50.0 mg/kg/injection, schedule: Q01DX009 (ip), vehicle: saline with Tween-80
[9] = dose: 25.0 mg/kg/injection, schedule: Q04DX002 (ip), vehicle: saline with Tween-80
[10] = dose: 50.0 mg/kg/injection, schedule: Q04DX002 (ip), vehicle: saline with Tween-80

Compound: CC12CCC(C1)C(C)(C)C2NCCCN1C(=O)c2ccc3c4c(ccc(c24)C1=O)C(=O)N(CCCNC1C2(C)CCC(C2)C1(C)C)C3=O (configuration not stated)
- survivor count [1]: 6 of 6
- survivor count (dose: 100.0 mg/kg/injection, schedule: Q01DX009 (ip), vehicle: Klucel (hydroxypropylcellulose) (HPC)): 3 of 6

Compound: Nc1ncnc2c1ncn2C(C=O)OC(C=O)CO (configuration not stated)
- T/C (dose: 2.0 mg/kg/injection, schedule: Q01DX009 (ip), vehicle: carboxymethylcellulose (CMC)): 135 % of control
- T/C (dose: 2.2 mg/kg/injection, schedule: Q01DX009 (ip), vehicle: saline): 147 % of control
- T/C [2]: 148 % of control
- survivor count (dose: 32.0 mg/kg/injection, schedule: Q01DX009 (ip), vehicle: carboxymethylcellulose (CMC)): 1 of 6
- survivor count (dose: 64.0 mg/kg/injection, schedule: Q01DX009 (ip), vehicle: carboxymethylcellulose (CMC)): 1 of 6
- survivor count [3]: 5 of 6
- survivor count (dose: 160.0 mg/kg/injection, schedule: Q04DX003 (ip), vehicle: carboxymethylcellulose (CMC)): 0 of 6
- survivor count [4]: 0 of 6
- survivor count [5]: 0 of 6

Compound: C/C(=N\[N+](C)(C)C)c1ccccc1
- T/C (dose: 25.0 mg/kg/injection, schedule: Q04DX003 (ip), vehicle: saline): 132 % of control

Compound: N=[N+]=CC(=O)CC(N)C(=O)O (configuration not stated)
- survivor count [3]: 6 of 6
- survivor count [4]: 6 of 6
- survivor count [5]: 6 of 6

Compound: CCOC(=O)C1CC1C(=O)O (configuration not stated)
- survivor count [5]: 6 of 6

Compound: NC(=O)N/N=C/c1cccs1
- survivor count (dose: 12.5 mg/kg/injection, schedule: Q01DX009 (ip), vehicle: saline with Tween-80): 6 of 6

Compound: CC(C)CC(C(N)=O)c1ccccc1 (configuration not stated)
- survivor count (dose: 400.0 mg/kg/injection, schedule: Q01DX001 (ip), vehicle: saline with Tween-80): 0 of 6

Compound: CCOCCOCCOCCCNCCCN1CC1
- T/C (dose: 50.0 mg/kg/injection, schedule: Q04DX003 (ip), vehicle: saline): 147 % of control
- survivor count [6]: 4 of 6

Compound: N#CCc1cnc2nc(N)nc(N)c2n1
- survivor count (dose: 50.0 mg/kg/injection, schedule: Q01DX009 (ip), vehicle: other): 3 of 3

Compound: CCCCCCCCCCCC(=O)NC1CC(O[C@H]2C[C@](O)(C(=O)CO)Cc3c(O)c4c(c(O)c32)C(=O)c2c(OC)cccc2C4=O)OC(C)C1O (some centres not stated)
- T/C (dose: 1.56 mg/kg/injection, schedule: Q01DX009 (ip), vehicle: water): 131 % of control

Compound: Nc1nc(-c2ccccc2)ns1
- survivor count (dose: 100.0 mg/kg/injection, schedule: Q01DX009 (ip), vehicle: saline sonified): 2 of 6

Compound: C=CCCC(=O)OC(C)(C)C
- T/C [7]: 126 % of control [5 of 6 alive]
- T/C (dose: 100.0 mg/kg/injection, schedule: Q01DX009 (ip), vehicle: water): 128 % of control
- T/C [6]: 126 % of control
- T/C (dose: 200.0 mg/kg/injection, schedule: Q01DX009 (ip), vehicle: water): 134 % of control

Compound: Cn1c2ccccc2c2ccc3c(c21)C(=O)C=CC3=O
- survivor count [8]: 4 of 6
- T/C (dose: 100.0 mg/kg/injection, schedule: Q01DX009 (ip), vehicle: saline with Tween-80): 125 % of control [4 of 6 alive]
- survivor count (dose: 200.0 mg/kg/injection, schedule: Q01DX009 (ip), vehicle: saline with Tween-80): 2 of 6

Compound: Cc1cc2c3ccccc3ncn2n1
- survivor count (dose: 400.0 mg/kg/injection, schedule: Q01DX001 (ip), vehicle: saline): 4 of 6
- survivor count (dose: 400.0 mg/kg/injection, schedule: Q01DX009 (ip), vehicle: Klucel (hydroxypropylcellulose) (HPC)): 4 of 6

Compound: Cn1c(=O)c2[nH]c(CCCc3nc4c([nH]3)c(=O)n(C)c(=O)n4C)nc2n(C)c1=O
- survivor count (dose: 25.0 mg/kg/injection, schedule: Q01DX009 (ip), vehicle: saline): 6 of 6
- survivor count [7]: 1 of 6
- survivor count [4]: 3 of 6

Compound: COc1ccc(CC2c3cc(OC)c(OC)c(OC)c3CC[N+]2(C)C)cc1Oc1ccc(CC2c3cc4c(c(OC)c3CCN2C)OCO4)cc1 (configuration not stated)
- survivor count [9]: 0 of 6
- survivor count [10]: 0 of 6
- survivor count (dose: 100.0 mg/kg/injection, schedule: Q04DX002 (ip), vehicle: saline with Tween-80): 0 of 6

Compound: CCN1/C(=C/C=C/C=C\C=C\c2sc3ccc4ccccc4c3[n+]2CC)Sc2ccc3ccccc3c21
- survivor count (dose: 6.25 mg/kg/injection, schedule: Q04DX002 (ip), vehicle: saline with Tween-80): 6 of 6
- survivor count (dose: 12.5 mg/kg/injection, schedule: Q04DX002 (ip), vehicle: saline with Tween-80): 6 of 6
- survivor count [9]: 5 of 6
- survivor count [10]: 4 of 6

Compound: CC1CC(OC(=O)CCN2CC2)CC(C)(C)C1 (configuration not stated)
- survivor count (dose: 10.0 mg/kg/injection, schedule: Q04DX003 (ip), vehicle: Klucel (hydroxypropylcellulose) (HPC)): 6 of 6

Compound: O=C1C(N2CCOCC2)=Cc2cccc3cccc1c23
- survivor count [8]: 5 of 6
- survivor count (dose: 400.0 mg/kg/injection, schedule: Q01DX009 (ip), vehicle: saline with Tween-80): 1 of 6

Compound: Nc1nccc(NCCCCCCNc2ccnc(N)n2)n1
- T/C (dose: 100.0 mg/kg/injection, schedule: Q04DX002 (ip), vehicle: saline): 130 % of control
- survivor count (dose: 200.0 mg/kg/injection, schedule: Q04DX002 (ip), vehicle: saline): 0 of 6
- survivor count (dose: 400.0 mg/kg/injection, schedule: Q04DX002 (ip), vehicle: saline): 0 of 6

Compound: O=P(N1CCCCCC1)(N1CC1)N1CC1
- T/C [2]: 131 % of control
- T/C (dose: 11.0 mg/kg/injection, schedule: Q04DX003 (ip), vehicle: saline): 141 % of control
- T/C (dose: 12.0 mg/kg/injection, schedule: Q01DX009 (ip), vehicle: saline): 130 % of control
- T/C (dose: 18.0 mg/kg/injection, schedule: Q01DX009 (ip), vehicle: saline): 130 % of control
- survivor count [3]: 1 of 6
- survivor count [4]: 1 of 6
- survivor count [5]: 0 of 6

Compound: Cc1cc(=O)[nH]c(N/N=C2/CCCCC2C)n1 (configuration not stated)
- survivor count (dose: 33.0 mg/kg/injection, schedule: Q01DX009 (ip), vehicle: Klucel (hydroxypropylcellulose) (HPC)): 6 of 6
- T/C [1]: 131 % of control
- survivor count [1]: 6 of 6
- survivor count (dose: 75.0 mg/kg/injection, schedule: Q01DX009 (ip), vehicle: Klucel (hydroxypropylcellulose) (HPC)): 6 of 6
- survivor count (dose: 200.0 mg/kg/injection, schedule: Q01DX009 (ip), vehicle: Klucel (hydroxypropylcellulose) (HPC)): 5 of 6
- survivor count (dose: 400.0 mg/kg/injection, schedule: Q04DX003 (ip), vehicle: Klucel (hydroxypropylcellulose) (HPC)): 2 of 6

Compound: O=[N+]([O-])c1ccc(S(=O)c2ccc([N+](=O)[O-])c3nonc23)cc1 (configuration not stated)
- survivor count (dose: 60.0 mg/kg/injection, schedule: Q01DX009 (ip), vehicle: saline with Tween-80): 5 of 7
